Residue numbers refer to the chain shown, from its start. Names and notes keep the numbering of the source. These are yes or no findings as the source states them, for the method shown. For part of these data: Binding seen in cells or lysates may run through a third protein. Some results given as binding are weak or reduced against the parent protein; the word gives no strength. Where a sequence is shown, tags or fusion partners need not be part of it.
T1: FLAG-tagged secreted extracellular domain of HephD568H (residues 1-1107) (human) (UniProt Q9BQS7)
T1 sequence: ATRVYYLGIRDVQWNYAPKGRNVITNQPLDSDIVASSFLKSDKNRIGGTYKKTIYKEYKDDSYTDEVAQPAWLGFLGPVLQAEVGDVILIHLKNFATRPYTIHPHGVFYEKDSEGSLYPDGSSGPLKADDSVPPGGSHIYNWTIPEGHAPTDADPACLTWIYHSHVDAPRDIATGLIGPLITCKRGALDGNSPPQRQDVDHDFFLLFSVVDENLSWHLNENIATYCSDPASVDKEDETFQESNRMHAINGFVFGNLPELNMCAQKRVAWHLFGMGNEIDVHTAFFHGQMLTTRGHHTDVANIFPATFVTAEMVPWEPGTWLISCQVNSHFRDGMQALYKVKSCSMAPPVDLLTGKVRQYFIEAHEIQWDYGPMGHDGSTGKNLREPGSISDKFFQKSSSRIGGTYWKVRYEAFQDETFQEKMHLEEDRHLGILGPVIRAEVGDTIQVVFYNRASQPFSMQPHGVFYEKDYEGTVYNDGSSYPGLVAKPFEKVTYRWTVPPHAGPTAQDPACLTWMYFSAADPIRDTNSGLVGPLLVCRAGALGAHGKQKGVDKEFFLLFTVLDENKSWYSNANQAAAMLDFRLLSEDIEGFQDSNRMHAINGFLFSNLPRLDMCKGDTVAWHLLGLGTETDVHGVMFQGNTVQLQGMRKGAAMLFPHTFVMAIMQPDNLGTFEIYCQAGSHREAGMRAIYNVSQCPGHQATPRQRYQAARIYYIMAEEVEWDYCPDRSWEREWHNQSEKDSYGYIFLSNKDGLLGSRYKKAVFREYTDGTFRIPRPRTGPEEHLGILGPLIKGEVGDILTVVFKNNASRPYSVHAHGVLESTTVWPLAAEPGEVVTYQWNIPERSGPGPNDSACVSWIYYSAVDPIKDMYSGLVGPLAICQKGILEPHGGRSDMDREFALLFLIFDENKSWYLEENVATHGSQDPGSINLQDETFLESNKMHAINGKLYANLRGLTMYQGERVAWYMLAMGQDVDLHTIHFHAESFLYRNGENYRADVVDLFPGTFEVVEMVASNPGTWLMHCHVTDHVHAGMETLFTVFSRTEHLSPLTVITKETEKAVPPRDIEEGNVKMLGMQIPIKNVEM

Protein sequences, listed by entry. Tags and fused reporters are not part of them. Residues count along the entry.
UniProt P02787, residues 20-698: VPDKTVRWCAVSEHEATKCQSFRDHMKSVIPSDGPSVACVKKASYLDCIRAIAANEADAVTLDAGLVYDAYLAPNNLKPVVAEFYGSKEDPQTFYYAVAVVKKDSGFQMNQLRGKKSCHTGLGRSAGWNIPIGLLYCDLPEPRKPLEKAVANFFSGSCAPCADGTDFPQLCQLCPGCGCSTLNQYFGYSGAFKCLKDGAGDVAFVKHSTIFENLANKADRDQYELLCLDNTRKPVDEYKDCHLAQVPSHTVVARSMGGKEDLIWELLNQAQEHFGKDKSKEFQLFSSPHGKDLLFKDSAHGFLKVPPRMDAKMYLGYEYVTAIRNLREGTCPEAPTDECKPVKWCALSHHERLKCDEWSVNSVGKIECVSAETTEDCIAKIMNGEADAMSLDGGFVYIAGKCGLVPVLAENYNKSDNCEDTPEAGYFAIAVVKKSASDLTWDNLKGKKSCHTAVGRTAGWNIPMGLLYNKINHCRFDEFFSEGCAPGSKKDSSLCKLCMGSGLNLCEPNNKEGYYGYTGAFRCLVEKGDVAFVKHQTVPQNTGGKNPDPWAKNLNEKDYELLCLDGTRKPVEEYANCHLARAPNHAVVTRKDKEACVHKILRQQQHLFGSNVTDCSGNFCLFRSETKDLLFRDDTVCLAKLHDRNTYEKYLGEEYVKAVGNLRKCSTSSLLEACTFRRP

T2: Human ferroportin tagged with GFP (human) (UniProt Q9NP59)
T2 sequence: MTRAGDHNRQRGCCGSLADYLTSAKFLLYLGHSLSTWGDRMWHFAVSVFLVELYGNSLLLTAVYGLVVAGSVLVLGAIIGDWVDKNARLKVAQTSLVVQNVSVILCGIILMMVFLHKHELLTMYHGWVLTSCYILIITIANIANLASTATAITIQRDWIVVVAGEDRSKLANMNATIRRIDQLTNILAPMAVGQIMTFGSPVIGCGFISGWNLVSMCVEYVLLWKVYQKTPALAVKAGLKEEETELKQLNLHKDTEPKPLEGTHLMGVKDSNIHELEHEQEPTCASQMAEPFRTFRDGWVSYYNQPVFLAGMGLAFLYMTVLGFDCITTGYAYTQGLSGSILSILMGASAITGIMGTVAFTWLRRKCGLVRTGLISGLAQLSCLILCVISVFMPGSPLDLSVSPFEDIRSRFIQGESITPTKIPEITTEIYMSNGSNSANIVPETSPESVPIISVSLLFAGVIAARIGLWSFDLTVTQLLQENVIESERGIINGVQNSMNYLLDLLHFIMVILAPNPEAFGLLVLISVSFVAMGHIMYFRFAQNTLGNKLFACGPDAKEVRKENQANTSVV

B1: Full-length human hephaestin, wild type, with a C-terminal FLAG-tag (enzyme, UniProt Q9BQS7-1 24-1158)
chain: ATRVYYLGIRDVQWNYAPKGRNVITNQPLDSDIVASSFLKSDKNRIGGTYKKTIYKEYKDDSYTDEVAQPAWLGFLGPVLQAEVGDVILIHLKNFATRPYTIHPHGVFYEKDSEGSLYPDGSSGPLKADDSVPPGGSHIYNWTIPEGHAPTDADPACLTWIYHSHVDAPRDIATGLIGPLITCKRGALDGNSPPQRQDVDHDFFLLFSVVDENLSWHLNENIATYCSDPASVDKEDETFQESNRMHAINGFVFGNLPELNMCAQKRVAWHLFGMGNEIDVHTAFFHGQMLTTRGHHTDVANIFPATFVTAEMVPWEPGTWLISCQVNSHFRDGMQALYKVKSCSMAPPVDLLTGKVRQYFIEAHEIQWDYGPMGHDGSTGKNLREPGSISDKFFQKSSSRIGGTYWKVRYEAFQDETFQEKMHLEEDRHLGILGPVIRAEVGDTIQVVFYNRASQPFSMQPHGVFYEKDYEGTVYNDGSSYPGLVAKPFEKVTYRWTVPPHAGPTAQDPACLTWMYFSAADPIRDTNSGLVGPLLVCRAGALGADGKQKGVDKEFFLLFTVLDENKSWYSNANQAAAMLDFRLLSEDIEGFQDSNRMHAINGFLFSNLPRLDMCKGDTVAWHLLGLGTETDVHGVMFQGNTVQLQGMRKGAAMLFPHTFVMAIMQPDNLGTFEIYCQAGSHREAGMRAIYNVSQCPGHQATPRQRYQAARIYYIMAEEVEWDYCPDRSWEREWHNQSEKDSYGYIFLSNKDGLLGSRYKKAVFREYTDGTFRIPRPRTGPEEHLGILGPLIKGEVGDILTVVFKNNASRPYSVHAHGVLESTTVWPLAAEPGEVVTYQWNIPERSGPGPNDSACVSWIYYSAVDPIKDMYSGLVGPLAICQKGILEPHGGRSDMDREFALLFLIFDENKSWYLEENVATHGSQDPGSINLQDETFLESNKMHAINGKLYANLRGLTMYQGERVAWYMLAMGQDVDLHTIHFHAESFLYRNGENYRADVVDLFPGTFEVVEMVASNPGTWLMHCHVTDHVHAGMETLFTVFSRTEHLSPLTVITKETEKAVPPRDIEEGNVKMLGMQIPIKNVEMLASVLVAISVTLLLVVLALGGVVWYQHRQRKLRRNRRSILDDSFKLLSFKQ
B2: Full-length human hephaestin variant D568H with a C-terminal FLAG-tag (enzyme, UniProt Q9BQS7-1 24-1158)
chain: B1 chain with D545H

Experiments:
[1] = molecular target: T1, FLAG-tagged secreted extracellular domain of HephD568H (residues 1-1107) (human); experiment: pull-down; FLAG-tagged sec-Heph purified from HEK293T culture medium on FLAG-trap resin; equal amounts of each affinity resin incubated with apo-Tfn or holo-Tfn; pulled-down Tfn quantified by Western blot; both purified
[2] = molecular target: T2, Human ferroportin tagged with GFP (human); experiment: co-IP; HEK293T co-transfected with Fpn1-GFP and HephWT or HephD568H; cells cross-linked before lysis with DSP (0.5 mM, 30 min, 4 °C, membrane-permeable) or DTSSP (1.5 mM, 2 h, 4 °C, membrane-impermeable); RIPA lysate; Fpn1-GFP precipitated with GFP-trap agarose, 1 h at 4 °C; Heph detected by anti-Heph …

binding [1]	binding [2]	Molecule
binds		Holo-transferrin (iron-loaded transferrin) (from UniProt P02787 20-698)
	binds	B1
	binds	B2

Reference: PMC11941830
